Assay results as given in patent US8535897B2, “Assays for non-apoptotic cell death and uses thereof” (The Trustees of Columbia University in the City of New York, priority 2006, dated 2013).
At least one compound was matched to its structure with a doubt left.

What was measured:
[1] = tested on: BJ-TERT/LT/ST/RAS^V12 cells; experiment: DNA fragmentation (DNA ladder); format: cell-based, human
[2] = tested on: A673 cells; experiment: Erastin sensitivity after BRAF knockdown; format: cell-based, human
[3] = tested on: HT1080 cells; experiment: Erastin sensitivity after VDAC knockdown (lentiviral shRNA); format: cell-based, human
[4] = tested on: BJELR cells; experiment: Sensitivity after upregulation of VDACs by nucleofection; format: cell-based, human
From the text: Quantitative western blot showing the ratio of VDACs (top band, green) to eif4E (bottom band, red) (e). […] Green, untransfected BJELR cells; blue, mock nucleofected BJELR cells; red, VDAC2/3-nucleofected BJELR cells (f).
In certain aspects, the invention provides that erastin acts by a gain-of-function mechanism and that cells with more VDAC proteins are more sensitive to erastin. A gain-of-function mechanism operates in cells which have increased levels of topoisomerase I and are thus more sensitive to camptothecin^149. […] In other embodiments, cell lines can be stably transfected with vectors expressing VDAC1, 2, and/or 3. Thus, increased VDAC expression leads to erastin sensitivity which is consistent with a gain of function mechanism. Furthermore, a knockdown of VDACs causes erastin resistance.

[5] = tested on: Caspase-3; experiment: Caspase-3 cleavage, western blot; format: cell-based; details: anti-caspase-3 antibody, full length and cleaved form
[6] = tested on: cytochrome c; experiment: Cytochrome c release from mitochondria; format: cell-based, human; details: BJ-TERT/LT/ST/RAS^V12; staurosporine 1 μM or erastin 20 μg/mL for 6 h
Experimental: BJ-TERT/LT/ST/RAS^V12 cells were seeded in polystyrene 100×20 mm dishes in 10 ml media. After overnight incubation at 37° C. with 5% CO2, the cells were treated with nothing (NT), staurosporine (ST, 1 μM) or erastin (20 μg/mL) for 6 h, washed with 10 mL ice-cold PBS and lysed by passage through a 25-gauge needle (five strokes). Cell lysates were centrifuged at 1850 rpm for 5 min at 4° C. to remove the nuclear fraction. Mitochondria were removed from the soluble cytosolic fraction by pelleting at 10,000 rpm. Supernatant and mitochondrial pellets were solubilized in SDS-PAGE loading buffer and analyzed by western blot using anti-cytochrome c and pan-VDAC antibodies and IR-dye-linked secondary antibodies. […] Fluorescence was detected on a LI-COR Odyssey infrared scanner.
(a) BJ-TERT/LT/ST/RAS^V12 cells were treated with 9 μM erastin A1 for the indicated length of time, and the number of viable cells determined. […] Red fluorescence resulting from reduction of alamar blue was detected on a Victor3 platereader. […] (e) The number of viable cells was quantified under each condition using a hemacytometer. […] BJ-TERT/LT/ST/RAS^V12 (shown in histogram plots, and in line graph as dark diamonds) or BJ-TERT cells (shown in line graph only, light circles) were treated with 4.6-μM erastin A1 and the level of intracellular oxidative species determined. […]

[7] = tested on: PARP1; experiment: PARP1 cleavage, western blot; format: cell-based, human; details: BJ-TERT/LT/ST/RAS^V12; staurosporine 1 μM 6 h, camptothecin 1 μM 18 h, erastin 20 μg/mL
Experimental: BJ-TERT/LT/ST/RAS^V12 tumor cells were seeded in six-well dishes, incubated overnight at 37° C. with 5% CO2 and were treated with nothing (NT), staurosporine (ST, 1 μM) for 6 h, camptothecin (C, 1 μM) for 18 h, or erastin (20 μg/mL) for the indicated time, lysed and analyzed by western blot with an anti-PARP1 antibody. A relatively high concentration of erastin was used to ensure loss of PARP cleavage was not due to a concentration-dependent effect.
For western blots, medium was aspirated, and each dish was washed twice with 10 mL of ice-cold PBS. Cells were lysed with 200 μL of buffer (50 mM HEPES, 40 mM NaCl, 2 mM EDTA, 0.5% Triton-X, 1.5 mM sodium orthovanadate, 50 mM NaF, 10 mM Na Pyrophosphate, 10 mM Na B-glycerophosphate and protease inhibitor tablet, pH 7.4). […]

[8] = tested on: BJ-TERT/LT/ST/RAS^V12 and BJ-TERT cells; experiment: Oxidative species detection (H2DCF-DA, flow cytometry); format: cell-based, human; details: 4.6 μM erastin
[9] = tested on: Calu-1 cells; experiment: Erastin sensitivity of Calu-1 cells with and without KRAS knockdown (Trypan Blue exclusion); format: cell-based, human; details: Calu-1, lentiviral shRNA to KRAS

Question: What does the source list for `CCOc1ccccc1-n1c(C(C)N2CCN(C(=O)COc3ccc(Cl)cc3)CC2)nc2ccccc2c1=O` (stereo not shown) [erastin]?
Answer: DNA fragmentation (formation of a DNA ladder) [1]: does not induce DNA fragmentation; erastin sensitivity with BRAF-targeted shRNA [2]: resistant; erastin sensitivity after reducing expression of VDAC2 [3]: partial resistance; erastin sensitivity after reducing expression of VDAC3 [3]: complete resistance; change in sensitivity/potency after upregulation of VDAC proteins by nucleofection [4]: about two to three-fold; caspase-3 cleavage [5]: not cleaved; cytochrome c release from mitochondria [6]: does not induce cytochrome c release from mitochondria; PARP1 cleavage [7]: unaffected; formation of oxidative species [8]: oxidizing species were detected in response to erastin treatment in BJ-TERT/LT/ST/RAS^V12 cells, but not in BJ-TERT cells; erastin sensitivity after reduction of mutant KRAS levels [9]: significant resistance
